Data published in paper doi:10.1101/2025.07.15.664947.
No constants are given. Whether binding was seen depends on the method and setting. In cells and extracts the contact can be indirect. Some binding calls cover weakened binding; strength is not graded here. Sequences can lack the tags named with a protein.

The chains behind the UniProt entries cited, without tags or fusion partners.
UniProt Q9UBN7: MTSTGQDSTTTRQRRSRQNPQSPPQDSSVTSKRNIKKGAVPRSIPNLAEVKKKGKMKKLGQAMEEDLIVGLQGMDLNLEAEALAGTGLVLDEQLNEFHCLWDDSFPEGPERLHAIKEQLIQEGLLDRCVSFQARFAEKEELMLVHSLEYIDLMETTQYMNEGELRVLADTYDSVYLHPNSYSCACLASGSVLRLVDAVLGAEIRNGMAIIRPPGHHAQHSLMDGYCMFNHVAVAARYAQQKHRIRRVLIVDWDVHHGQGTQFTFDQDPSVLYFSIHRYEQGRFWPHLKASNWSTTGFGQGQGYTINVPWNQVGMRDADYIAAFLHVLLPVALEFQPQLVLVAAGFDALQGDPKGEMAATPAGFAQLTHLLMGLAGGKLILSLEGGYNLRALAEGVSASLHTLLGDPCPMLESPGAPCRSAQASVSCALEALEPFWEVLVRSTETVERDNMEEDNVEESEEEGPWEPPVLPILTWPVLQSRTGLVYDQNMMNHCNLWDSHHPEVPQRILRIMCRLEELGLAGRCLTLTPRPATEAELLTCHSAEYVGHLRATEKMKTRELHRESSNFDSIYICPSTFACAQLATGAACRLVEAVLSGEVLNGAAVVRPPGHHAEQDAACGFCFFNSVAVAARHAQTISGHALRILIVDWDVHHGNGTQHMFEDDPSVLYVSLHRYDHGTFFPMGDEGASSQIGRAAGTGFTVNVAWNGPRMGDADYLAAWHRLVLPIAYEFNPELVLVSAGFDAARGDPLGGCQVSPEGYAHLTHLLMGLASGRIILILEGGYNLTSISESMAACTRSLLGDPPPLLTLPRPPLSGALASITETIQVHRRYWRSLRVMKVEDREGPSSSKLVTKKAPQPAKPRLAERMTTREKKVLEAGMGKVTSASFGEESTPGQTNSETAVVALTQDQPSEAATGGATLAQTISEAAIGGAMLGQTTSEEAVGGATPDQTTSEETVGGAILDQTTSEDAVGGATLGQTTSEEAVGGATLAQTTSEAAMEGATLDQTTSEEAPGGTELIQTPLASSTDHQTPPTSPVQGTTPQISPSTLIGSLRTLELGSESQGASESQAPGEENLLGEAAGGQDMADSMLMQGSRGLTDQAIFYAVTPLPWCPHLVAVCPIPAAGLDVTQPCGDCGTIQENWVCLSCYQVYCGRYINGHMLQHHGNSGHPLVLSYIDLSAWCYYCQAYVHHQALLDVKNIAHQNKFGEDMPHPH

Key:
Assay in all cases: co-IP
M1-Spastin^C448Y-FLAG = target: T1, M1-Spastin^C448Y-FLAG (UniProt Q9UBP0)
T1 sequence: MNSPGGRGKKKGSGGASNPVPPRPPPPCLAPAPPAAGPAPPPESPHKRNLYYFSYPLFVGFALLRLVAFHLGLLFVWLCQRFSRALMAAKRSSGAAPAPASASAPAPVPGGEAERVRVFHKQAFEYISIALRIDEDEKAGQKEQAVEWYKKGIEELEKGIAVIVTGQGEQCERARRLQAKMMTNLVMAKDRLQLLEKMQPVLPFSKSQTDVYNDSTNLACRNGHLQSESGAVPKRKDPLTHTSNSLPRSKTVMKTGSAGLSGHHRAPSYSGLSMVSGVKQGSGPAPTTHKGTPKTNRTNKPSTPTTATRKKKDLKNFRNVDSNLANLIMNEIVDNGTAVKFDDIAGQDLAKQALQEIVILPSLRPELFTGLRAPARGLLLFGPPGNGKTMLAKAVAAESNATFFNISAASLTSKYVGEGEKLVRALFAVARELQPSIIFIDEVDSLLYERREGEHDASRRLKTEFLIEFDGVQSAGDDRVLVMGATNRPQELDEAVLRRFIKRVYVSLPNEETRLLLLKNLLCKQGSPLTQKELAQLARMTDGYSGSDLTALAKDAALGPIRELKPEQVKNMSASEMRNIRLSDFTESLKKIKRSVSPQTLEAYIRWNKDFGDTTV

M1-Spastin^S245X-FLAG = target: T2, M1-Spastin^S245X-FLAG (UniProt Q9UBP0)
T2 sequence: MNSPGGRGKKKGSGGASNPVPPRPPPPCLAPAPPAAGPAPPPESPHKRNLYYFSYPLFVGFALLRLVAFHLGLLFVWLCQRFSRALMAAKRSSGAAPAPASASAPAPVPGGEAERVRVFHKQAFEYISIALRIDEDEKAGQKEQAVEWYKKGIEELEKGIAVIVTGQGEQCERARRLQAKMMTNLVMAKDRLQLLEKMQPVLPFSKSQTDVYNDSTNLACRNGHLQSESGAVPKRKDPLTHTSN

M1-Spastin^WT-FLAG = target: T3, M1-Spastin^WT-FLAG (UniProt Q9UBP0)
T3 sequence: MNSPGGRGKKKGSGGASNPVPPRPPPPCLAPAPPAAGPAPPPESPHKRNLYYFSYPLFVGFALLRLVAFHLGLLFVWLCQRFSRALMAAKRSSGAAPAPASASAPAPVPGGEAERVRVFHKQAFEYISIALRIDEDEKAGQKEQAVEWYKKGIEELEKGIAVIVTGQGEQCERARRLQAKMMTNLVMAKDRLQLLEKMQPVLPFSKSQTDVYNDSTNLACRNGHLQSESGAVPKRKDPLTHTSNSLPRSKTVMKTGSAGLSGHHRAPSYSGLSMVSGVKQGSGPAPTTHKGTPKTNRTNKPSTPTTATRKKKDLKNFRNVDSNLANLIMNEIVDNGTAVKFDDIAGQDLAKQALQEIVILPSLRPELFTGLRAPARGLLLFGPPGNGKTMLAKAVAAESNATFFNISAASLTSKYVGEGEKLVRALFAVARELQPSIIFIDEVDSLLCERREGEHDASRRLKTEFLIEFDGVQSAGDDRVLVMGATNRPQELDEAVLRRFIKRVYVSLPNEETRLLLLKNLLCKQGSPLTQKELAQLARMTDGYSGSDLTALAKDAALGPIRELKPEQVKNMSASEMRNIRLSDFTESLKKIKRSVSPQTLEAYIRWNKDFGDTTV

M87-Spastin^WT-FLAG = target: T4, M87-Spastin^WT-FLAG (UniProt Q9UBP0)
T4 sequence: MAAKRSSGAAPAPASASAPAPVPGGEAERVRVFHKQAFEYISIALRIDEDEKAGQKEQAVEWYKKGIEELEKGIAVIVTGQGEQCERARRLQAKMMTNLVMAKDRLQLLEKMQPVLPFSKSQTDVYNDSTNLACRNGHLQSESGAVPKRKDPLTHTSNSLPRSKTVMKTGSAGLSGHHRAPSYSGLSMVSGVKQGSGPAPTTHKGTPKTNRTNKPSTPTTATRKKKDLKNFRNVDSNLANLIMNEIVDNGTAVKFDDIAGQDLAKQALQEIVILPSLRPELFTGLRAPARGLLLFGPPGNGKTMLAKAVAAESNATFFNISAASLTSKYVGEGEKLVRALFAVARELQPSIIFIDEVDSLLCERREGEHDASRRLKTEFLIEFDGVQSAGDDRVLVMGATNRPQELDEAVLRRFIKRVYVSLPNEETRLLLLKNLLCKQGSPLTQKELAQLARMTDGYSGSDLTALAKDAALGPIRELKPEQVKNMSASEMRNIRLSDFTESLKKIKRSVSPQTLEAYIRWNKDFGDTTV

[1] = target: mCherry-tagged HDAC6 (histone deacetylase 6) (UniProt Q9UBN7)

Row | Molecule | binding [1] | other results
1 | endogenous HDAC6 (histone deacetylase 6) (from UniProt Q9UBN7 1-1215) (enzyme) |  | binding (M1-Spastin^C448Y-FLAG): binds; binding (M1-Spastin^S245X-FLAG): binds; binding (M1-Spastin^WT-FLAG): binds; binding (M87-Spastin^WT-FLAG): no binding
2 | M1-Spastin^WT-FLAG (protein, UniProt Q9UBP0 1-616) MNSPGGRGKKKGSGGASNPVPPRPPPPCLAPAPPAAGPAPPPESPHKRNLYYFSYPLFVGFALLRLVAFHLGLLFVWLCQRFSRALMAAKRSSGAAPAPASASAPAPVPGGEAERVRVFHKQAFEYISIALRIDEDEKAGQKEQAVEWYKKGIEELEKGIAVIVTGQGEQCERARRLQAKMMTNLVMAKDRLQLLEKMQPVLPFSKSQTDVYNDSTNLACRNGHLQSESGAVPKRKDPLTHTSNSLPRSKTVMKTGSAGLSGHHRAPSYSGLSMVSGVKQGSGPAPTTHKGTPKTNRTNKPSTPTTATRKKKDLKNFRNVDSNLANLIMNEIVDNGTAVKFDDIAGQDLAKQALQEIVILPSLRPELFTGLRAPARGLLLFGPPGNGKTMLAKAVAAESNATFFNISAASLTSKYVGEGEKLVRALFAVARELQPSIIFIDEVDSLLCERREGEHDASRRLKTEFLIEFDGVQSAGDDRVLVMGATNRPQELDEAVLRRFIKRVYVSLPNEETRLLLLKNLLCKQGSPLTQKELAQLARMTDGYSGSDLTALAKDAALGPIRELKPEQVKNMSASEMRNIRLSDFTESLKKIKRSVSPQTLEAYIRWNKDFGDTTV | binds | 
3 | M1-Spastin^C448Y-FLAG (protein, UniProt Q9UBP0 1-616) MNSPGGRGKKKGSGGASNPVPPRPPPPCLAPAPPAAGPAPPPESPHKRNLYYFSYPLFVGFALLRLVAFHLGLLFVWLCQRFSRALMAAKRSSGAAPAPASASAPAPVPGGEAERVRVFHKQAFEYISIALRIDEDEKAGQKEQAVEWYKKGIEELEKGIAVIVTGQGEQCERARRLQAKMMTNLVMAKDRLQLLEKMQPVLPFSKSQTDVYNDSTNLACRNGHLQSESGAVPKRKDPLTHTSNSLPRSKTVMKTGSAGLSGHHRAPSYSGLSMVSGVKQGSGPAPTTHKGTPKTNRTNKPSTPTTATRKKKDLKNFRNVDSNLANLIMNEIVDNGTAVKFDDIAGQDLAKQALQEIVILPSLRPELFTGLRAPARGLLLFGPPGNGKTMLAKAVAAESNATFFNISAASLTSKYVGEGEKLVRALFAVARELQPSIIFIDEVDSLLYERREGEHDASRRLKTEFLIEFDGVQSAGDDRVLVMGATNRPQELDEAVLRRFIKRVYVSLPNEETRLLLLKNLLCKQGSPLTQKELAQLARMTDGYSGSDLTALAKDAALGPIRELKPEQVKNMSASEMRNIRLSDFTESLKKIKRSVSPQTLEAYIRWNKDFGDTTV | binds | 
4 | M1-Spastin^S245X-FLAG (domain or fragment, UniProt Q9UBP0 1-244) MNSPGGRGKKKGSGGASNPVPPRPPPPCLAPAPPAAGPAPPPESPHKRNLYYFSYPLFVGFALLRLVAFHLGLLFVWLCQRFSRALMAAKRSSGAAPAPASASAPAPVPGGEAERVRVFHKQAFEYISIALRIDEDEKAGQKEQAVEWYKKGIEELEKGIAVIVTGQGEQCERARRLQAKMMTNLVMAKDRLQLLEKMQPVLPFSKSQTDVYNDSTNLACRNGHLQSESGAVPKRKDPLTHTSN | binds | 
5 | M87-Spastin^WT-FLAG (protein, UniProt Q9UBP0 87-616) MAAKRSSGAAPAPASASAPAPVPGGEAERVRVFHKQAFEYISIALRIDEDEKAGQKEQAVEWYKKGIEELEKGIAVIVTGQGEQCERARRLQAKMMTNLVMAKDRLQLLEKMQPVLPFSKSQTDVYNDSTNLACRNGHLQSESGAVPKRKDPLTHTSNSLPRSKTVMKTGSAGLSGHHRAPSYSGLSMVSGVKQGSGPAPTTHKGTPKTNRTNKPSTPTTATRKKKDLKNFRNVDSNLANLIMNEIVDNGTAVKFDDIAGQDLAKQALQEIVILPSLRPELFTGLRAPARGLLLFGPPGNGKTMLAKAVAAESNATFFNISAASLTSKYVGEGEKLVRALFAVARELQPSIIFIDEVDSLLCERREGEHDASRRLKTEFLIEFDGVQSAGDDRVLVMGATNRPQELDEAVLRRFIKRVYVSLPNEETRLLLLKNLLCKQGSPLTQKELAQLARMTDGYSGSDLTALAKDAALGPIRELKPEQVKNMSASEMRNIRLSDFTESLKKIKRSVSPQTLEAYIRWNKDFGDTTV | no binding | 
